# Reference: the supplement of paper PMC8728848
# The other results are listed elsewhere or left out.
# B1: MUB70 (Lactobacillus reuteri) (protein)
# chain: CVHVQYIDGETDQMLRQDDLDGYTDETIPYSTAEGIKKFEGDGYELFKDNFPAGEKFDNDDTNDQFYTVIF
# Assays:
# Assay in all cases: glycan array binding signal (z-score within array); higher = stronger binding
# Conditions in all cases: glycan notation: IUPAC condensed, linker removed
# Gal6S(b1-4)Glc = target: Gal6S(b1-4)Glc
# Summary of the method: (§1)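 The Consortium for Functional Glycomics database supplied 3228 glycan arrays, of which those lacking an available protein sequence were dropped. The binding signal, a within-array Z-score, was averaged across arrays of the same protein sequence and across linkers. Negative scores can be read as non-binding.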
# Gal6S(b1-4)Glc6S = target: Gal6S(b1-4)Glc6S
# Summary of the method: as §1
# Gal6S(b1-4)GlcNAc = target: Gal6S(b1-4)GlcNAc
# Summary of the method: as §1
# Gal6S(b1-4)GlcNAc6S = target: Gal6S(b1-4)GlcNAc6S
# Summary of the method: as §1
# GalNAc(a1-3)Gal = target: GalNAc(a1-3)Gal
# Summary of the method: as §1
# GalNAc(a1-3)GalNAc = target: GalNAc(a1-3)GalNAc
# Summary of the method: as §1
# [1] = target: GalNAc(a1-3)GalNAc(b1-3)Gal(a1-4)Gal(b1-4)Glc
# Summary of the method: as §1
# [2] = target: GalNAc(a1-3)GalNAc(b1-3)Gal(a1-4)Gal(b1-4)GlcNAc
# Summary of the method: as §1
# GalNAc(b1-3)Gal = target: GalNAc(b1-3)Gal
# Summary of the method: as §1
# [3] = target: GalNAc(b1-3)Gal(a1-4)Gal(b1-4)GlcNAc
# Summary of the method: as §1
# [4] = target: GalNAc(b1-3)Gal(a1-4)Gal(b1-4)GlcNAc(b1-3)Gal(b1-4)Glc
# Summary of the method: as §1
# [5] = target: GalNAc(b1-3)Gal(a1-6)Gal(b1-4)Glc
# Summary of the method: as §1
# GalNAc(b1-3)GalNAc = target: GalNAc(b1-3)GalNAc
# Summary of the method: as §1
# GalNAc(b1-3)GlcNAc = target: GalNAc(b1-3)GlcNAc
# Summary of the method: as §1
# GalNAc(b1-4)Gal(b1-4)Glc = target: GalNAc(b1-4)Gal(b1-4)Glc
# Summary of the method: as §1
# GalNAc(b1-4)GlcNAc = target: GalNAc(b1-4)GlcNAc
# Summary of the method: as §1
# [6] = target: GalNAc(b1-4)GlcNAc(b1-2)Man
# Summary of the method: as §1
# [7] = target: GalNAc(b1-4)GlcNAc(b1-2)Man(a1-3)[GalNAc(b1-4)GlcNAc(b1-2)Man(a1-6)]Man(b1-4)GlcNAc(b1-4)GlcNAc
# Summary of the method: as §1
# [8] = target: GalNAc(b1-4)GlcNAc(b1-3)GalNAc(b1-4)GlcNAc
# Summary of the method: as §1
# GalNAc(b1-4)GlcNAc6S = target: GalNAc(b1-4)GlcNAc6S
# Summary of the method: as §1
# GalNAc(b1-6)GalNAc = target: GalNAc(b1-6)GalNAc
# Summary of the method: as §1
# GalNAc3S(b1-4)GlcNAc = target: GalNAc3S(b1-4)GlcNAc
# Summary of the method: as §1
# GalNAc3S(b1-4)GlcNAc3S = target: GalNAc3S(b1-4)GlcNAc3S
# Summary of the method: as §1
# [9] = target: GalNAc3S(b1-4)[Fuc(a1-3)]GlcNAc
# Summary of the method: as §1
# GalNAc4S6S(b1-4)GlcNAc = target: GalNAc4S6S(b1-4)GlcNAc
# Summary of the method: as §1
# GalNAc6S(b1-4)GlcNAc = target: GalNAc6S(b1-4)GlcNAc
# Summary of the method: as §1
# Glc(a1-4)Glc = target: Glc(a1-4)Glc
# Summary of the method: as §1
# [10] = target: Glc(a1-4)Glc(a1-4)Glc(a1-4)Glc
# Summary of the method: as §1
# Glc(a1-6)Glc(a1-6)Glc = target: Glc(a1-6)Glc(a1-6)Glc
# Summary of the method: as §1
# [11] = target: Glc(a1-6)Glc(a1-6)Glc(a1-6)Glc
# Summary of the method: as §1
# Glc(b1-4)Glc = target: Glc(b1-4)Glc
# Summary of the method: as §1
# Glc(b1-6)Glc = target: Glc(b1-6)Glc
# Summary of the method: as §1
# GlcA(b1-3)Gal = target: GlcA(b1-3)Gal
# Summary of the method: as §1
# GlcA(b1-3)GlcNAc = target: GlcA(b1-3)GlcNAc
# Summary of the method: as §1
# GlcA(b1-6)Gal = target: GlcA(b1-6)Gal
# Summary of the method: as §1
# [12] = target: GlcA3S(b1-3)Gal(b1-4)GlcNAc(b1-2)Man
# Summary of the method: as §1
# [13] = target: GlcA3S(b1-3)Gal(b1-4)GlcNAc(b1-3)Gal(b1-4)Glc
# Summary of the method: as §1
# [14] = target: GlcNAc(a1-3)Gal(b1-4)GlcNAc
# Summary of the method: as §1
# [15] = target: GlcNAc(a1-4)Gal(b1-3)GlcNAc
# Summary of the method: as §1
# [16] = target: GlcNAc(a1-4)Gal(b1-4)GalNAc
# Summary of the method: as §1
# [17] = target: GlcNAc(a1-4)Gal(b1-4)GlcNAc
# Summary of the method: as §1
# [18] = target: GlcNAc(a1-4)Gal(b1-4)GlcNAc(b1-3)Gal(b1-4)Glc
# Summary of the method: as §1
# [19] = target: GlcNAc(a1-4)Gal(b1-4)GlcNAc(b1-3)Gal(b1-4)GlcNAc
# Summary of the method: as §1
# [20] = target: GlcNAc(a1-4)Gal(b1-4)GlcNAc(b1-3)Gal(b1-4)GlcNAc(b1-3)Gal(b1-4)GlcNAc
# Summary of the method: as §1
# [21] = target: GlcNAc(a1-4)Gal(b1-4)GlcNAc(b1-3)Gal(b1-4)[Fuc(a1-3)]GlcNAc(b1-3)Gal(b1-4)[Fuc(a1-3)]GlcNAc
# Summary of the method: as §1
binder,measurement,setting,value
B1,glycan array binding signal (z-score),Gal6S(b1-4)Glc,-0.45
same,glycan array binding signal (z-score),Gal6S(b1-4)Glc6S,-0.439
same,glycan array binding signal (z-score),Gal6S(b1-4)GlcNAc,-0.054
same,glycan array binding signal (z-score),Gal6S(b1-4)GlcNAc6S,-0.436
same,glycan array binding signal (z-score),GalNAc(a1-3)Gal,-0.57
same,glycan array binding signal (z-score),GalNAc(a1-3)GalNAc,-0.291
same,glycan array binding signal (z-score),[1],-0.132
same,glycan array binding signal (z-score),[2],0.279
same,glycan array binding signal (z-score),GalNAc(b1-3)Gal,0.027
same,glycan array binding signal (z-score),[3],0.58
same,glycan array binding signal (z-score),[4],0.493
same,glycan array binding signal (z-score),[5],-0.028
same,glycan array binding signal (z-score),GalNAc(b1-3)GalNAc,-0.426
same,glycan array binding signal (z-score),GalNAc(b1-3)GlcNAc,-0.051
same,glycan array binding signal (z-score),GalNAc(b1-4)Gal(b1-4)Glc,-0.303
same,glycan array binding signal (z-score),GalNAc(b1-4)GlcNAc,-0.297
same,glycan array binding signal (z-score),[6],-0.418
same,glycan array binding signal (z-score),[7],1.12
same,glycan array binding signal (z-score),[8],0.743
same,glycan array binding signal (z-score),GalNAc(b1-4)GlcNAc6S,0.276
same,glycan array binding signal (z-score),GalNAc(b1-6)GalNAc,-0.531
same,glycan array binding signal (z-score),GalNAc3S(b1-4)GlcNAc,-0.259
same,glycan array binding signal (z-score),GalNAc3S(b1-4)GlcNAc3S,-0.012
same,glycan array binding signal (z-score),[9],-0.183
same,glycan array binding signal (z-score),GalNAc4S6S(b1-4)GlcNAc,0.329
same,glycan array binding signal (z-score),GalNAc6S(b1-4)GlcNAc,-0.027
same,glycan array binding signal (z-score),Glc(a1-4)Glc,-0.223
same,glycan array binding signal (z-score),[10],0.215
same,glycan array binding signal (z-score),Glc(a1-6)Glc(a1-6)Glc,-0.59
same,glycan array binding signal (z-score),[11],-0.181
same,glycan array binding signal (z-score),Glc(b1-4)Glc,-0.187
same,glycan array binding signal (z-score),Glc(b1-6)Glc,-0.894
same,glycan array binding signal (z-score),GlcA(b1-3)Gal,-0.592
same,glycan array binding signal (z-score),GlcA(b1-3)GlcNAc,0.075
same,glycan array binding signal (z-score),GlcA(b1-6)Gal,-0.677
same,glycan array binding signal (z-score),[12],0.326
same,glycan array binding signal (z-score),[13],-0.095
same,glycan array binding signal (z-score),[14],-0.153
same,glycan array binding signal (z-score),[15],-0.209
same,glycan array binding signal (z-score),[16],-0.747
same,glycan array binding signal (z-score),[17],-0.149
same,glycan array binding signal (z-score),[18],0.325
same,glycan array binding signal (z-score),[19],0.39
same,glycan array binding signal (z-score),[20],-0.705
same,glycan array binding signal (z-score),[21],-0.45

# Reformatted: results already given
binder	measurement	setting	value
B1	glycan array binding signal (z-score)	GalNAc6S(b1-4)GlcNAc	-0.027
same	glycan array binding signal (z-score)	[10]	0.215
same	glycan array binding signal (z-score)	[20]	-0.705
